Test results reported in PubChem BioAssay AID248 (DTP/NCI, 2004).
The list is a part of this screen's results and no random one: it is rich in T/C values a quarter to a half above the control, in often repeated tests (any T/C) and in doses without a T/C. Other doses and runs of a compound stand elsewhere. T/C gives the treated animals as a percentage of the vehicle group. Some doses have a count of surviving animals in place of a T/C: the source holds a T/C of zero for them, seemingly a mark for toxic or unscored doses. Some doses without a T/C left all or most animals alive at the check, yet need not have been tolerated: survival well below the control is almost never listed, so the zero probably covers shortened survival too. Survivors were counted at the toxicity check, usually on the fifth day, unless a day is given; later deaths do not show. Schedules are NCI's codes, taken here to give the interval after Q, in days (D) or hours (H), and the number of doses after X. Some schedules carry Z or #; the key to these is not given. Some entries hold several experiments; their values stand side by side, smallest first. Where survival is the endpoint, this PubChem deposit counts one and a half times the control or more as active, and values a quarter to a half above the control carry no call in these data; other NCI protocols may use other cut-offs. Some T/C values carry the count of animals alive at the toxicity check (mostly the fifth day); without a count, all were alive then. Signs of the kind (2×) give the number of equal values in this list.

Tested on: L1210 leukemia ip in BDF1 mice, survival T/C
Experiment: NCI In Vivo Anticancer Drug Screen. Data for tumor model L1210 Leukemia (intraperitoneal) in B6D2F1 (BDF1) mice
Details: higher T/C = longer survival
[1] = T/C endpoint: mean survival time, dose: 4.0 mg/kg/injection, schedule: Q01DX Z (ip), vehicle: saline

Nc1nc(=S)c2[nH]cnc2[nH]1
T/C (T/C endpoint: mean survival time, dose: 3.7 mg/kg/injection, schedule: Q01DX Z (ip), vehicle: carboxymethylcellulose (CMC)): 136 % of control
T/C (T/C endpoint: mean survival time, dose: 4.0 mg/kg/injection, schedule: Q01DX006 (iv), vehicle: saline): 130 % of control
T/C (T/C endpoint: mean survival time, dose: 4.0 mg/kg/injection, schedule: Q01DX Z (ip), vehicle: carboxymethylcellulose (CMC)): 128 % of control
T/C [1]: 128 and 146 % of control
survivor count [1]: 1 of 6
T/C (T/C endpoint: mean survival time, dose: 4.0 mg/kg/injection, schedule: Q01DX Z (sc), vehicle: saline): 142 % of control
T/C (T/C endpoint: mean survival time, dose: 4.9 mg/kg/injection, schedule: Q01DX009 (ip), vehicle: alkali diluted with saline): 142 % of control
T/C (T/C endpoint: mean survival time, dose: 5.3 mg/kg/injection, schedule: Q04DX004 (ip), vehicle: alkali diluted with saline): 148 % of control
T/C (T/C endpoint: mean survival time, dose: 5.3 mg/kg/injection, schedule: Q04DX012 (ip), vehicle: alkali diluted with saline): 136 % of control
T/C (T/C endpoint: mean survival time, dose: 6.0 mg/kg/injection, schedule: Q03DX006 (ip), vehicle: saline): 135 % of control
T/C (T/C endpoint: mean survival time, dose: 7.0 mg/kg/injection, schedule: Q04DX002 (ip), vehicle: alkali diluted with saline): 134 % of control
T/C (T/C endpoint: mean survival time, dose: 7.4 mg/kg/injection, schedule: Q01DX009 (ip), vehicle: alkali diluted with saline): 144 % of control
T/C (T/C endpoint: mean survival time, dose: 8.0 mg/kg/injection, schedule: Q01DX006 (iv), vehicle: saline): 134 % of control
survivor count (T/C endpoint: mean survival time, dose: 8.0 mg/kg/injection, schedule: Q01DX Z (sc), vehicle: saline): 5 of 6
T/C (T/C endpoint: mean survival time, dose: 8.0 mg/kg/injection, schedule: Q04DX006 (ip), vehicle: alkali diluted with saline): 136 % of control
T/C (T/C endpoint: mean survival time, dose: 8.0 mg/kg/injection, schedule: Q04DX008 (ip), vehicle: alkali diluted with saline): 138 % of control
T/C (T/C endpoint: mean survival time, dose: 8.0 mg/kg/injection, schedule: Q04DX010 (ip), vehicle: alkali diluted with saline): 140 % of control
T/C (T/C endpoint: mean survival time, dose: 8.0 mg/kg/injection, schedule: Q04DX012 (ip), vehicle: alkali diluted with saline): 139 % of control
T/C (T/C endpoint: mean survival time, dose: 8.8 mg/kg/injection, schedule: Q04DX003 (ip), vehicle: alkali diluted with saline): 142 % of control
survivor count (T/C endpoint: mean survival time, dose: 12.0 mg/kg/injection, schedule: Q01DX Z (ip), vehicle: carboxymethylcellulose (CMC)): 6 of 6
T/C (T/C endpoint: mean survival time, dose: 12.0 mg/kg/injection, schedule: Q03DX006 (ip), vehicle: saline): 127 and 146 % of control [5 of 6 alive]
T/C (T/C endpoint: mean survival time, dose: 12.0 mg/kg/injection, schedule: Q04DX004 (ip), vehicle: alkali diluted with saline): 135 % of control
T/C (T/C endpoint: mean survival time, dose: 12.0 mg/kg/injection, schedule: Q04DX008 (ip), vehicle: alkali diluted with saline): 141 % of control
T/C (T/C endpoint: mean survival time, dose: 12.0 mg/kg/injection, schedule: Q04DX010 (ip), vehicle: alkali diluted with saline): 136 % of control
T/C (T/C endpoint: mean survival time, dose: 12.0 mg/kg/injection, schedule: Q04DX012 (ip), vehicle: alkali diluted with saline): 143 % of control
T/C (T/C endpoint: mean survival time, dose: 12.0 mg/kg/injection, schedule: Q07DX003 (ip), vehicle: saline): 149 % of control
T/C (T/C endpoint: mean survival time, dose: 12.0 mg/kg/injection, schedule: Q07DX012 (ip), vehicle: alkali diluted with saline): 141 % of control
T/C (T/C endpoint: mean survival time, dose: 13.0 mg/kg/injection, schedule: Q01DX001 (ip), vehicle: alkali diluted with saline): 147 % of control
T/C (T/C endpoint: mean survival time, dose: 13.0 mg/kg/injection, schedule: Q04DX003 (ip), vehicle: alkali diluted with saline): 148 % of control
survivor count (T/C endpoint: mean survival time, dose: 13.5 mg/kg/injection, schedule: Q01DX Z (ip), vehicle: carboxymethylcellulose (CMC)): 6 of 6
T/C (T/C endpoint: mean survival time, dose: 14.0 mg/kg/injection, schedule: Q01DX001 (ip), vehicle: saline): 134, 140, 150, 163 % of control
T/C (T/C endpoint: mean survival time, dose: 14.0 mg/kg/injection, schedule: Q04DX002 (ip), vehicle: alkali diluted with saline): 159, 169, 197, 214 % of control
survivor count (T/C endpoint: mean survival time, dose: 16.0 mg/kg/injection, schedule: Q01DX Z (oral), vehicle: saline): 6 of 6
T/C (T/C endpoint: mean survival time, dose: 16.0 mg/kg/injection, schedule: Q## X024 (ip), vehicle: alkali diluted with saline): 131 % of control
T/C (T/C endpoint: mean survival time, dose: 18.0 mg/kg/injection, schedule: Q04DX004 (ip), vehicle: alkali diluted with saline): 138 % of control
T/C (T/C endpoint: mean survival time, dose: 18.0 mg/kg/injection, schedule: Q04DX006 (ip), vehicle: alkali diluted with saline): 141 % of control
T/C (T/C endpoint: mean survival time, dose: 18.0 mg/kg/injection, schedule: Q04DX008 (ip), vehicle: alkali diluted with saline): 132 % of control
T/C (T/C endpoint: mean survival time, dose: 18.0 mg/kg/injection, schedule: Q04DX010 (ip), vehicle: alkali diluted with saline): 129 % of control
T/C (T/C endpoint: mean survival time, dose: 18.0 mg/kg/injection, schedule: Q07DX004 (ip), vehicle: alkali diluted with saline): 149 % of control
T/C (T/C endpoint: mean survival time, dose: 18.0 mg/kg/injection, schedule: Q07DX008 (ip), vehicle: alkali diluted with saline): 143 and 145 % of control
T/C (T/C endpoint: mean survival time, dose: 18.0 mg/kg/injection, schedule: Q07DX010 (ip), vehicle: alkali diluted with saline): 142 % of control
T/C (T/C endpoint: mean survival time, dose: 18.0 mg/kg/injection, schedule: Q07DX012 (ip), vehicle: alkali diluted with saline): 142 % of control
T/C (T/C endpoint: mean survival time, dose: 27.0 mg/kg/injection, schedule: Q04DX002 (ip), vehicle: alkali diluted with saline): 117, 193, 197, 212 % of control
T/C (T/C endpoint: mean survival time, dose: 27.0 mg/kg/injection, schedule: Q04DX004 (ip), vehicle: alkali diluted with saline): 130 % of control
T/C (T/C endpoint: mean survival time, dose: 27.0 mg/kg/injection, schedule: Q04DX006 (ip), vehicle: alkali diluted with saline): 137 % of control
T/C (T/C endpoint: mean survival time, dose: 27.0 mg/kg/injection, schedule: Q04DX008 (ip), vehicle: alkali diluted with saline): 138 % of control
T/C (T/C endpoint: mean survival time, dose: 27.0 mg/kg/injection, schedule: Q04DX010 (ip), vehicle: alkali diluted with saline): 134 % of control
T/C (T/C endpoint: mean survival time, dose: 27.0 mg/kg/injection, schedule: Q07DX004 (ip), vehicle: alkali diluted with saline): 139 % of control
T/C (T/C endpoint: mean survival time, dose: 27.0 mg/kg/injection, schedule: Q07DX006 (ip), vehicle: alkali diluted with saline): 146 % of control
T/C (T/C endpoint: mean survival time, dose: 27.0 mg/kg/injection, schedule: Q07DX008 (ip), vehicle: alkali diluted with saline): 147 % of control
T/C (T/C endpoint: mean survival time, dose: 27.0 mg/kg/injection, schedule: Q07DX010 (ip), vehicle: alkali diluted with saline): 148 % of control
T/C (T/C endpoint: mean survival time, dose: 27.0 mg/kg/injection, schedule: Q07DX012 (ip), vehicle: alkali diluted with saline): 137 % of control
T/C (T/C endpoint: mean survival time, dose: 28.0 mg/kg/injection, schedule: Q01DX001 (ip), vehicle: saline): 156, 160 (2×), 180 % of control
T/C (T/C endpoint: mean survival time, dose: 36.0 mg/kg/injection, schedule: Q## X008 (ip), vehicle: alkali diluted with saline): 132 % of control
T/C (T/C endpoint: mean survival time, dose: 40.0 mg/kg/injection, schedule: Q04DX004 (ip), vehicle: alkali diluted with saline): 145 % of control
T/C (T/C endpoint: mean survival time, dose: 40.0 mg/kg/injection, schedule: Q07DX004 (ip), vehicle: alkali diluted with saline): 138 % of control
T/C (T/C endpoint: mean survival time, dose: 40.0 mg/kg/injection, schedule: Q07DX006 (ip), vehicle: alkali diluted with saline): 142 % of control
T/C (T/C endpoint: mean survival time, dose: 40.0 mg/kg/injection, schedule: Q07DX008 (ip), vehicle: alkali diluted with saline): 137 % of control
T/C (T/C endpoint: mean survival time, dose: 40.0 mg/kg/injection, schedule: Q07DX010 (ip), vehicle: alkali diluted with saline): 137 % of control
T/C (T/C endpoint: mean survival time, dose: 40.0 mg/kg/injection, schedule: Q07DX012 (ip), vehicle: alkali diluted with saline): 136 % of control
T/C (T/C endpoint: mean survival time, dose: 45.0 mg/kg/injection, schedule: Q01DX001 (ip), vehicle: alkali diluted with saline): 148 % of control
T/C (T/C endpoint: mean survival time, dose: 45.0 mg/kg/injection, schedule: Q04DX003 (ip), vehicle: alkali diluted with saline): 139 % of control
survivor count (T/C endpoint: mean survival time, dose: 48.0 mg/kg/injection, schedule: Q03DX006 (ip), vehicle: saline): 6 of 6
T/C (T/C endpoint: mean survival time, dose: 48.0 mg/kg/injection, schedule: Q07DX003 (ip), vehicle: saline): 147 % of control
T/C (T/C endpoint: mean survival time, dose: 53.0 mg/kg/injection, schedule: Q04DX002 (ip), vehicle: alkali diluted with saline): 132, 176, 200, 236 % of control
T/C (T/C endpoint: mean survival time, dose: 56.0 mg/kg/injection, schedule: Q01DX001 (ip), vehicle: saline): 135 and 145 % of control
T/C (T/C endpoint: mean survival time, dose: 60.0 mg/kg/injection, schedule: Q07DX006 (ip), vehicle: alkali diluted with saline): 146 % of control [8 of 10 alive]
T/C (T/C endpoint: mean survival time, dose: 60.0 mg/kg/injection, schedule: Q07DX008 (ip), vehicle: alkali diluted with saline): 135 % of control
T/C (T/C endpoint: mean survival time, dose: 60.0 mg/kg/injection, schedule: Q07DX010 (ip), vehicle: alkali diluted with saline): 145 % of control
T/C (T/C endpoint: mean survival time, dose: 67.5 mg/kg/injection, schedule: Q01DX001 (ip), vehicle: carboxymethylcellulose (CMC)): 126 % of control
survivor count (T/C endpoint: mean survival time, dose: 106.0 mg/kg/injection, schedule: Q04DX002 (ip), vehicle: alkali diluted with saline): 1 of 6
T/C (T/C endpoint: mean survival time, dose: 112.0 mg/kg/injection, schedule: Q01DX001 (ip), vehicle: saline): 140 and 145 % of control
survivor count (T/C endpoint: mean survival time, dose: 150.0 mg/kg/injection, schedule: Q08DX002 (ip), vehicle: alkali diluted with saline): 5 of 10
survivor count (T/C endpoint: mean survival time, dose: 180.0 mg/kg/injection, schedule: Q01DX001 (ip), vehicle: alkali diluted with saline): 1 of 10 and 3 of 10
T/C (T/C endpoint: mean survival time, dose: 224.0 mg/kg/injection, schedule: Q01DX001 (ip), vehicle: saline): 130 % of control
survivor count (T/C endpoint: mean survival time, dose: 225.0 mg/kg/injection, schedule: Q01DX001 (ip), vehicle: alkali diluted with saline): 5 of 10
survivor count (T/C endpoint: mean survival time, dose: 225.0 mg/kg/injection, schedule: Q08DX002 (ip), vehicle: alkali diluted with saline): 1 of 10
survivor count (T/C endpoint: mean survival time, dose: 400.0 mg/kg/injection, schedule: Q01DX001 (ip), vehicle: saline): 0 of 6
T/C (T/C endpoint: mean survival time, dose: 245.0 micrograms/kg/injection, schedule: Q01DX Z (ip), vehicle: carboxymethylcellulose (CMC)): 127 % of control
T/C (T/C endpoint: mean survival time, dose: 326.0 micrograms/kg/injection, schedule: Q01DX Z (ip), vehicle: carboxymethylcellulose (CMC)): 138 % of control
T/C (T/C endpoint: mean survival time, dose: 490.0 micrograms/kg/injection, schedule: Q01DX Z (ip), vehicle: carboxymethylcellulose (CMC)): 149 % of control
T/C (T/C endpoint: median survival time, dose: 2.0 mg/kg/injection, schedule: Q01DX009 (ip), vehicle: other): 138 % of control
T/C (T/C endpoint: median survival time, dose: 8.0 mg/kg/injection, schedule: Q01DX009 (ip), vehicle: other): 133 % of control
